Measurements: article PMC10308680 (Journal of Biomedical Science, 2023)
No constants are given. Whether binding was seen depends on the method and setting. Some binding calls cover weakened binding; strength is not graded here.

Chains of the proteins cited; added tags and fusions are not shown. Residues count along the entry.
UniProt P10747, residues 19-220: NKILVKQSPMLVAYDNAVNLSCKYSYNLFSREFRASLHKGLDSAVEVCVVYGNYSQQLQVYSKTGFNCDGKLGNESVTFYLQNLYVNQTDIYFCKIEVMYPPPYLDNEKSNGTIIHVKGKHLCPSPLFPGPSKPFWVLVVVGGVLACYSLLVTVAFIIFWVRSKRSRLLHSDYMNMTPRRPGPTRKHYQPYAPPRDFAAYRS

Molecular target: CD28/GFP fusion protein (human) (UniProt P10747)
Test: flow cytometry on cells

Q: ASPMLVAYDA (D-Ala at both termini (first and last residue)) [p2TA, CD28 dimer interface mimetic octapeptide, with D-Ala at both termini] was tested. Which binding did it give?
A: The binding was “binds”.
